PubChem BioAssay AID743454 – Peter MacCallum Cancer Centre – 2014
Here is an unselected part of about 18,000 deposited reagents. 450 of them (2.5%) were called active. 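Single biological run; no consistent viability z cut-off exists, so the class columns, not z-scores, define the calls.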 Entries without a mark were called inactive. Reagents against one gene are numbered here.

Test: 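Genes whose loss kills vorinostat-resistant colon cancer cells under vorinostat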 (primary screen)
System: human HCT116-VR colon cancer cells, selected for vorinostat resistance
Reagent: siRNA pool against human genes, 40 nM siRNA pool
Timing: vorinostat for 24 h, read-out about 72 h after transfection
Conditions: vorinostat at 2.5 µM final
Read-out: 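Two measures, CellTiter-Fluor viability and luminescent caspase 3/7 activity, each as fold change against same-plate mock wells, mean of duplicates, then screen-wide robust z-score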
Direction: viability robust z-score: higher = more viable cells than screen typical; caspase robust z-score: higher = more caspase 3/7 activity than screen typical
Call rule: 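a knock-down is a hit when classed RV1 or RV2 for lowered viability, or CA1 or CA2 for caspase activation; those lethal without drug were dropped; hits were retested singly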

gene symbol	pool no.	viability hit class	caspase hit class	viability robust z-score	caspase robust z-score
RCAN3	1	no change	no change	0.08	0.2
COG2	1	no change	no change	-0.16	-0.45
DYNLT2B	1	no change	no change	1.29	0.06
MED13L	1	no change	no change	0.55	-0.28
AARD	1	no change	no change	0.52	-0.25
HSPB2	1	no change	no change	-0.4	-0.5
STK32B	1	no change	no change	0.11	0.88
CDC42EP3	1	no change	no change	0.53	2.3
ABHD5	1	no change	no change	0.08	-0.81
MTG1	1	no change	no change	0.23	0.12
THEMIS2	1	no change	no change	0.35	-0.84
TBC1D3F	1	no change	no change	0.7	2.81
TBC1D3F	2	no change	no change	0.18	-0.35
COQ10A	1	no change	no change	-1.02	-0.74
HABP4	1	no change	no change	0.42	-0.4
CERS5	1	no change	no change	0.64	-1.21
CREG2	1	no change	no change	-0.14	-0.17
UTP23	1	no change	no change	0.17	-0.36
STRADB	1	no change	no change	0.07	0.28
KCNK13	1	no change	no change	-0.38	2.34
HACD3	1	no change	no change	0.23	-0.12
NFIA	1	no change	no change	0.07	1.22
ADORA3	1	no change	no change	-0.92	-0.96
SYNGR3	1	no change	no change	0.04	-0.3
H2AC20	1	no change	no change	0.6	0.24
LDLR	1	no change	no change	-0.38	0.81
CIAO2A	1	no change	no change	0.72	-0.25
OR2D3	1	no change	no change	0.37	-0.36
NOTCH3	1	no change	no change	-0.3	0.26
HIF1AN	1	no change	no change	1.11	0.62
SLC23A1	1	no change	no change	-0.44	1.12
ABCA4	1	no change	no change	-0.38	0.14
VTI1B	1	no change	no change	1.06	-0.97
ELF5	1	no change	no change	0.04	-0.97
MED24	1	no change	no change	1.77	-0.75
NDUFS6	1	no change	no change	0.2	-0.42
DEFB116	1	no change	no change	-0.34	0.22
RAB30	1	no change	no change	1.22	-0.63
DLGAP4	1	no change	no change	0.07	-0.8
